According to PMC7600425, “Modulation of Guanylate Cyclase Activating Protein 1 (GCAP1) Dimeric Assembly by Ca^2+ or Mg^2+: Hints to Understand Protein Activity” (Biomolecules, 2020):
No constants are given. Whether binding was seen depends on the method and setting. Some binding calls cover weakened binding; strength is not graded here.

Molecular target: chicken GCAP1 (chicken) (UniProt P79880)
Assay: SEC-MALS; data not shown; chicken GCAP1, said to be analogous to hGCAP1 in the salt-free buffer after addition of 1 mM calcium; both purified

B1: chicken GCAP1 (protein, UniProt P79880 7-199)
chain: KAVEELSATECHQWYKKFMTECPSGQLTLYEFKQFFGLKNLSPSANKYVEQMFETFDFNKDGYIDFMEYVAALSLVLKGKVDQKLRWYFKLYDVDGNGCIDRGELLNIIKAIRAINRCNEAMTAEEFTNMVFDKIDINGDGELSLEEFMEGVQKDEVLLDILTRSLDLTHIVKLIQNDGKNPHAPEEAEEAAQ
In the case of B1, the binding is reported as “binds”.
